Reference: article doi:10.1101/2022.07.18.500257

Experiments:
[1] = tested on: TnpA wild type (TnpAWT); assay: competition with a labelled probe; conditions: 12.5-50 uM IR end-2 reduces binding to one-end substrate (AFM)
[2] = tested on: TnpA3X; assay: competition with a labelled probe; conditions: 12.5-50 uM IR end-2 reduces binding to one-end substrate (AFM)
[3] = tested on: TnpAS911R; assay: competition with a labelled probe; conditions: 12.5-50 uM IR end-2 reduces binding to one-end substrate (AFM)
[4] = tested on: TnpA wild type (TnpAWT); assay: AFM force spectroscopy; conditions: 5' hexynyl on strand 1

| Sequence | binding result [1] | binding result [2] | binding result [3] | binding result [4] |
| --- | --- | --- | --- | --- |
| CCGGCCGCATGCAGTGGGGGTACCGCCAGCATTTCGGAAAAAAACCACGCTAAGAAAATCAGAGTTAAAA (double strand) [IR end-2 (blocking DNA)] | binds | binds | binds | – |
| TTTTTTTTTTTTTTTTTTTTCGCGCGCCATGCAATGACAACCGGAAACATGCGATATCGGGCCCAATTCGCCCTATCCTCTAGAGTCGAC / GTCGACTCTAGAGGATAGGGCGAATTGGGCCCGATATCGCATGTTTCCGGTTGTCATTGCATGGCGCGCG [nonspecific DNA (a/b)] | – | – | – | no binding |

For at least one entry, the source does not settle the construct or the ends of the probe. For some of these results: No signal at the amounts used counts as a negative.
